# Measurements reported in PubChem BioAssay AID1259254 (NCATS, 2017).
# Test: 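Gene knock-downs that lead to re-replication, shown by excess G2 DNA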 (primary screen)
# Cells: human HCT116 colorectal cancer cells
# Reagents: single siRNA against human genes
# Time to read-out: 3 days
# Detection: 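Nuclei stained with Hoechst and imaged; cell-cycle phase assigned by DNA content; G2 share scaled per plate, non-targeting siRNA 0%, GMNN siRNA 100%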
# Reading the numbers: G2 robust z-score and G2 cells, % of GMNN control: higher = more G2 cells, more excess DNA replication; raw share of cells in G2: higher = larger share of cells with G2 DNA content
# Call rule: 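An siRNA counts as active if its G2 robust z-score lies at least 5 MADs above the screen median; here such calls match roughly 38% of GMNN control or more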
# This is an unselected part of about 59,000 reagents. In the full data, about 1,550 (2.6%) were called active. 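G2 share is only a proxy for re-replication; each gene was hit by three separate siRNAs, and active genes were retested.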 The raw values are shown without normalisation. Reagent sequences are not shown. Not stated in the record: the amount of reagent.
gene symbol,PubChem SID,G2 robust z-score,"G2 cells, % of GMNN control",raw share of cells in G2 (%),Outcome
PKDCC (GeneID 91461),SID160735184,-0.62,-1.4,2.48,inactive
PKDCC (GeneID 91461),SID160753989,1.41,12.9,9.56,inactive
PKDCC (GeneID 91461),SID160753991,-0.718,-2.09,2.35,inactive
KRTAP5-5 (GeneID 439915),SID160731240,4.14,32.1,16,inactive
KRTAP5-5 (GeneID 439915),SID160767634,-1.69,-8.92,2.05,inactive
KRTAP5-5 (GeneID 439915),SID160767635,0.175,4.2,6.6,inactive
MED30 (GeneID 90390),SID160732127,3.03,24.3,13.7,inactive
MED30 (GeneID 90390),SID160753679,0.246,4.7,7.85,inactive
MED30 (GeneID 90390),SID160753680,-0.0844,2.37,5.98,inactive
ZKSCAN2 (GeneID 342357),SID160764600,-0.715,-2.06,2.38,inactive
ZKSCAN2 (GeneID 342357),SID160764601,0.26,4.8,4.83,inactive
ZKSCAN2 (GeneID 342357),SID160764602,0.192,4.32,5.04,inactive
CDH1 (GeneID 999),SID160740320,-0.561,-0.978,4.61,inactive
CDH1 (GeneID 999),SID160740331,0.836,8.85,8.23,inactive
CDH1 (GeneID 999),SID160740342,0.273,4.89,5.78,inactive
ATP6V0A2 (GeneID 23545),SID160736521,1.75,15.3,12.5,inactive
ATP6V0A2 (GeneID 23545),SID160736522,-0.0629,2.52,5,inactive
ATP6V0A2 (GeneID 23545),SID160736523,-0.192,1.61,4.42,inactive
MYL4 (GeneID 4635),SID160777685,-0.826,-2.84,4.26,inactive
MYL4 (GeneID 4635),SID160777686,-0.797,-2.64,2.32,inactive
MYL4 (GeneID 4635),SID160777687,0.485,6.38,8,inactive
FHIT (GeneID 2272),SID160765636,4.44,34.2,21.3,inactive
FHIT (GeneID 2272),SID160765647,-1.18,-5.31,2.14,inactive
FHIT (GeneID 2272),SID160765658,-0.34,0.579,3.75,inactive
KEAP1 (GeneID 9817),SID160723163,-0.744,-2.27,2.77,inactive
KEAP1 (GeneID 9817),SID160723164,-1.01,-4.13,4.15,inactive
KEAP1 (GeneID 9817),SID160723165,-0.799,-2.65,2.23,inactive
FAM162A (GeneID 26355),SID160737968,-0.254,1.18,4.86,inactive
FAM162A (GeneID 26355),SID160737969,-0.634,-1.49,3.29,inactive
FAM162A (GeneID 26355),SID160737970,-0.801,-2.67,2.37,inactive
TM4SF19 (GeneID 116211),SID160755365,-0.963,-3.81,2.57,inactive
TM4SF19 (GeneID 116211),SID160755366,-1.05,-4.42,2.01,inactive
TM4SF19 (GeneID 116211),SID160755367,0.571,6.99,3.86,inactive
ARAF (GeneID 369),SID160770871,-0.693,-1.91,4.98,inactive
ARAF (GeneID 369),SID160770947,1.2,11.4,9.25,inactive
ARAF (GeneID 369),SID160771027,-0.174,1.75,4.64,inactive
SUPT20H (GeneID 55578),SID160743829,0.553,6.86,5.21,inactive
SUPT20H (GeneID 55578),SID160743830,-0.703,-1.98,5.01,inactive
SUPT20H (GeneID 55578),SID160743831,4.76,36.5,15.1,inactive
ADGRB2 (GeneID 576),SID160722893,-0.851,-3.02,4.76,inactive
ADGRB2 (GeneID 576),SID160722903,2.39,19.8,11.4,inactive
ADGRB2 (GeneID 576),SID160722913,0.283,4.96,4.79,inactive
H2BC21 (GeneID 8349),SID160719887,-0.219,1.43,5.76,inactive
H2BC21 (GeneID 8349),SID160719888,0.899,9.29,7.58,inactive
H2BC21 (GeneID 8349),SID160719889,-0.291,0.917,3.67,inactive
NXT2 (GeneID 55916),SID160744641,0.614,7.28,7.22,inactive
NXT2 (GeneID 55916),SID160744642,1.44,13.1,10.7,inactive
NXT2 (GeneID 55916),SID160744643,1.58,14.1,7.49,inactive
